Small differences around the control level are noise.
Assays:
Test in all cases: normalised response (% of control), CellTox Green; higher = less cell death (100 = DMSO, 0 = benzethonium chloride kill control)
Details in all cases: incubation time: 72 h
[1] = system: MDA-MB-468
Protocol: (§1)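 DSRT, 72 h incubation, CellTox Green / CellTiter-Glo readout. Signal is normalised to DMSO and benzethonium chloride controls. Value is the normalised response at dose 2.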

[2] = system: BT-474
Protocol: as §1

[3] = system: MCF-10A
Protocol: as §1

[4] = system: CAL-148
Protocol: as §1

[5] = system: MDA-MB-231
Protocol: as §1

[6] = system: HDQ-P1
Protocol: as §1

[7] = system: BT-549
Protocol: as §1

[8] = system: MDA-MB-453
Protocol: as §1

[9] = system: MFM-223
Protocol: as §1

[10] = system: HCC1599
Protocol: as §1

[11] = system: DU-4475
Protocol: as §1

[12] = system: CAL-51
Protocol: as §1

[13] = system: MDA-MB-436
Protocol: as §1

[14] = system: HCC1143
Protocol: as §1

[15] = system: CAL-120
Protocol: as §1

[16] = system: CAL-85-1
Protocol: as §1

[17] = system: Hs578T
Protocol: as §1

[18] = system: HCC1937
Protocol: as §1

Row | Structure (SMILES) | normalised response [1] | normalised response [2] | normalised response [3] | normalised response [4] | normalised response [5] | normalised response [6] | normalised response [7] | normalised response [8] | normalised response [9] | normalised response [10] | normalised response [11] | normalised response [12] | normalised response [13] | normalised response [14] | normalised response [15] | normalised response [16] | normalised response [17] | normalised response [18]
2 | CC(=O)N(O)CCCCCNC(=O)CCC(=O)N(O)CCCCCNC(=O)CCC(=O)N(O)CCCCCN [Deferoxamine] (10 nM) | – | 102% | 64.6% | 103% | 95.2% | – | 94.1% | 94.7% | 97.6% | 93.5% | 92.5% | 90.2% | 91.2% | 70.9% | 98.3% | 102% | 114% | 81%
3 | CC[C@]1(O)C[C@@H]2CN(CCc3c([nH]c4ccccc34)[C@@](C(=O)OC)(c3cc4c(cc3OC)N(C)[C@H]3[C@@](O)(C(=O)OC)[C@H](OC(C)=O)[C@]5(CC)C=CCN6CC[C@]43[C@@H]65)C2)C1 [Vinblastine] (1 nM) | 54.6% | 98.2% | 104% | – | 95.2% | 111% | 106% | 94% | 103% | 98.6% | 95.3% | 100% | 69.8% | 105% | 96.9% | 107% | 128% | 97%
5 | O=C(O)CC[C@H]1CC[C@@](c2cc(F)ccc2F)(S(=O)(=O)c2ccc(Cl)cc2)CC1 [MK-0752] (1 nM) | 101% | 103% | 118% | 111% | 116% | 114% | 103% | 110% | 98.2% | 130% | 118% | 102% | 95.4% | 105% | 103% | 102% | – | 96.3%
6 | Nc1cccc2c1CN(C1CCC(=O)NC1=O)C2=O (stereo unspecified) [Lenalidomide] (10 nM) | 86.5% | 97.7% | 102% | 78.8% | 99.8% | 114% | – | 106% | 99% | 105% | 104% | 88.9% | 74.6% | 118% | 97.8% | 95.4% | 105% | 83.7%

— the supplement of paper PMC4862054
